# Data from patent US20200362300A1 (OSE IMMUNOTHERAPEUTICS, published 2020).
# These are yes or no findings as the source states them, for the method shown. Some binding calls cover weakened binding; strength is not graded here. Tags and fused reporters may be left off the sequences shown.
# T1: CD127-Fc (Sino Biological) (UniProt P16871)
# T1 sequence (looked up): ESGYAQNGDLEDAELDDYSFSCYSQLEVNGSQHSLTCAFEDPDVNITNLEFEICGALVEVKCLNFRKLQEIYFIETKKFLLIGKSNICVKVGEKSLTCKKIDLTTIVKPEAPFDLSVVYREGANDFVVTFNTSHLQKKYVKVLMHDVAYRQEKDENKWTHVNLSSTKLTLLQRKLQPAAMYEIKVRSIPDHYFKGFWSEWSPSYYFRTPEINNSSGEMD
# B1: Effi3-VH3VL3 (antibody, V domains shown)
# VH: AVQLVESGGGLVQPGGSLKITCAASGFTFTNAAMYWVRQAPGKGLEWVARIRTKANNYATYYADSVKGRFTISRDDSKSTVYLQMDSVKTEDTATYYCIVVVLTTTRDYFDYWGQGVLVTVSS
# VL: DIVLTQSPSSLPVTPGEPASISCRSSQSLLTVKGITSLYWFLQKPGQSPKLLIYRMSNRDSGVPDRFSGSGSETDFTLKISRVEAEDVGTYYCAQFLEYPHTFGAGTKLELKR
# notes: also called Effi3-VH3L3; Effi3 clone VH3VL3
# Target: T1, CD127-Fc (Sino Biological)
# Assay: SPR (Biacore), CD127-Fc immobilised
binder,measurement,value
B1,binding,binds
